Data from article PMC10320016.
Results are given in words; binding and its absence hold for the method and conditions named. Binding seen in cells or lysates may run through a third protein. Some results given as binding are weak or reduced against the parent protein; the word gives no strength.

Molecular target: CRAF fused at its N-terminus to the EGFP (UniProt P04049)
Test: co-IP

epidermal growth factor receptor (from UniProt P00533 25-1210)
binding: binds
